The target in experiment [1] is T1, Flag-PDK1 (3-phosphoinositide-dependent protein kinase 1, wild type) (UniProt O15530).
T1 sequence: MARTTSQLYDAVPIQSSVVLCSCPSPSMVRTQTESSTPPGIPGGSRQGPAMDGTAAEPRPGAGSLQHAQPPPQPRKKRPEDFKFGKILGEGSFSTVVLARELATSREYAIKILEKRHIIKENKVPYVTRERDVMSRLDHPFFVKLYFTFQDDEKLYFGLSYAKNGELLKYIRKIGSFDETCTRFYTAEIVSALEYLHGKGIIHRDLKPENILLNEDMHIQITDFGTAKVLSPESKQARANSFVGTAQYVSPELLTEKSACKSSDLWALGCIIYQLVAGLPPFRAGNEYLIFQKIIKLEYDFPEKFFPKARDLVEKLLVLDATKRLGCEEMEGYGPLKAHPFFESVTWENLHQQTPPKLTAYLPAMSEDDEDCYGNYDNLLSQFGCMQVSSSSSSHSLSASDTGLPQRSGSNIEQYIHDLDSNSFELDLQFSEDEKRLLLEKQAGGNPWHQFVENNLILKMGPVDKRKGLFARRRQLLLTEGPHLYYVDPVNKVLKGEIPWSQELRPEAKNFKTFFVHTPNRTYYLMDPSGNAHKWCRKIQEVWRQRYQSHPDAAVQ
Nature of the experiment: co-IP; immunoprecipitation (anti-Flag or anti-HA agarose, 2-4 h at 4 °C) from whole cell lysates of co-transfected 293T cells; EBC lysis buffer, four washes with NETN buffer, immunoblot; in some panels with HA-S6K1-R3A or knock-down of 14-3-3γ.

Amino acid sequences for entries named in this document (tags omitted).
UniProt P31751: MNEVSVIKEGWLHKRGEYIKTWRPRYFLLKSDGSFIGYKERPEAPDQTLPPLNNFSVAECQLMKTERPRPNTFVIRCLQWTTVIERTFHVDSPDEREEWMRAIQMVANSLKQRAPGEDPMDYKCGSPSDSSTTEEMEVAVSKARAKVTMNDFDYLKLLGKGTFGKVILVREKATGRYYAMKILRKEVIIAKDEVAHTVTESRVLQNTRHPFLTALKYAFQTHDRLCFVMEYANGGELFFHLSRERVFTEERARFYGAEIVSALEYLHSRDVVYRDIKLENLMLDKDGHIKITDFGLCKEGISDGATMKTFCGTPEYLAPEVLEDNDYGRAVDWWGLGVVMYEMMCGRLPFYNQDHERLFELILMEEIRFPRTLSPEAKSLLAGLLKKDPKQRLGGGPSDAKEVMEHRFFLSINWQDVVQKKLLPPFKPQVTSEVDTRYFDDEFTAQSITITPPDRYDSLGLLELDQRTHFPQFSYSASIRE
UniProt P23443: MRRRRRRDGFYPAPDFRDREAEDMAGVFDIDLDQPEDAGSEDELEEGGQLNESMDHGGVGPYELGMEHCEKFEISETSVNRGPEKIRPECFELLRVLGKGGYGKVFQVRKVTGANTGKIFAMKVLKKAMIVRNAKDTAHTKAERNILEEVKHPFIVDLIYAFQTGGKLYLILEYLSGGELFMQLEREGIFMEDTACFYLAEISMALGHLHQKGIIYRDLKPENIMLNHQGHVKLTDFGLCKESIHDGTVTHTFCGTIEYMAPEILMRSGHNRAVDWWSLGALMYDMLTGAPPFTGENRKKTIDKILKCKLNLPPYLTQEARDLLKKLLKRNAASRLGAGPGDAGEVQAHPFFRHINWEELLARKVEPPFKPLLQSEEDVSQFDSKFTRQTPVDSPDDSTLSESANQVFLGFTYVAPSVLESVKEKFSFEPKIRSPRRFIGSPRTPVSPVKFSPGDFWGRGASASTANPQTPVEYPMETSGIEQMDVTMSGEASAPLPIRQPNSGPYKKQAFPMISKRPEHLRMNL
UniProt O00141: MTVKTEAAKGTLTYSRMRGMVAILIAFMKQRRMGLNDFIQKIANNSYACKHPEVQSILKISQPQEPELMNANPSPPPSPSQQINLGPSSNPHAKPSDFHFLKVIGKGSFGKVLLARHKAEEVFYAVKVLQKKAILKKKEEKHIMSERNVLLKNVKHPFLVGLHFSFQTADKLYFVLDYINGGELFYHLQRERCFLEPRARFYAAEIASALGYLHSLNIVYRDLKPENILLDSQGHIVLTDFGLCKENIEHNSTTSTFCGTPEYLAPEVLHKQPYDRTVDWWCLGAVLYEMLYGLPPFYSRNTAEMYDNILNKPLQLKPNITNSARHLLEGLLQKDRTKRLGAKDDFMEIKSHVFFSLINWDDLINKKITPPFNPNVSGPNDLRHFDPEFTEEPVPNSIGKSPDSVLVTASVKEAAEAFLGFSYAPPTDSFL
UniProt Q9Y243: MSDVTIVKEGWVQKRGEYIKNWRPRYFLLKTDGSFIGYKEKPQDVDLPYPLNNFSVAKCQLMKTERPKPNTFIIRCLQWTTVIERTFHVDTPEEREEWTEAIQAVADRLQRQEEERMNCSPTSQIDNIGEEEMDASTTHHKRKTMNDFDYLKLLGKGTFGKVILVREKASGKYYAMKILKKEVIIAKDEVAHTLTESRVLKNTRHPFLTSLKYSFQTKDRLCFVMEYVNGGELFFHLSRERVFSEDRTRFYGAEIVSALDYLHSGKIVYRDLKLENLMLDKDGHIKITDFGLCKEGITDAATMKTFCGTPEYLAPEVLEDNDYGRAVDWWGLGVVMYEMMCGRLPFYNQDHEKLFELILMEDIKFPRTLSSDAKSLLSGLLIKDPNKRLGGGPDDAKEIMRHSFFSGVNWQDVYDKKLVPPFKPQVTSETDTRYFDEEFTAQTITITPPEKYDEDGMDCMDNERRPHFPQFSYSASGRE

The target in a further experiment is T2, Flag-PDK1-S549D (UniProt O15530).
T2 sequence: T1 sequence with S549D
The description is as above.

In the next experiment the target is T3, Flag-PDK1-S549A (UniProt O15530).
T3 sequence: T1 sequence with S549A
The experiment is described as above.

The next experiment addresses T4, GST-14-3-3γ (UniProt P61981).
T4 sequence: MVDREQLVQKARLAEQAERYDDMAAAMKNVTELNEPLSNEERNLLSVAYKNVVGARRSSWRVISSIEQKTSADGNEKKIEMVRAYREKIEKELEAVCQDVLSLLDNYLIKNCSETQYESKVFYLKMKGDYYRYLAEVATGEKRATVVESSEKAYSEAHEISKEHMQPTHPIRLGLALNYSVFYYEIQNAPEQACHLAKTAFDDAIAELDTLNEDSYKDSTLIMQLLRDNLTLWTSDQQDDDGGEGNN
Nature of the experiment: pull-down; GST pull-down (glutathione beads, 2-4 h at 4 °C) from whole cell lysates of co-transfected 293T cells; EBC lysis buffer, four washes with NETN buffer, immunoblot; in Fig. 3b with increasing doses of HA-S6K1-R3A; in Fig. 4k control (scramble) cells.

Another experiment has as its target T5, GST-PDK1 (UniProt O15530).
T5 sequence: T1 sequence
Nature of the experiment: pull-down; GST pull-down from lysates of 14-3-3γ knockdown 293T cells transfected with GST-PDK1 and Flag-PDK1.

For a further experiment, the target named is T6, HA-14-3-3γ (UniProt P61981).
T6 sequence: T4 sequence
Description: co-IP; immunoprecipitation (anti-Flag or anti-HA agarose, 2-4 h at 4 °C) from whole cell lysates of co-transfected 293T cells; EBC lysis buffer, four washes with NETN buffer, immunoblot; in some panels with HA-S6K1-R3A or knock-down of 14-3-3γ.

Another experiment concerns the target T7, GST-PDK1, O15530.
T7 chain: T1 sequence
Description: pull-down; GST pull-down (glutathione beads, 2-4 h at 4 °C) from whole cell lysates of co-transfected 293T cells; EBC lysis buffer, four washes with NETN buffer, immunoblot; in Fig. 3b with increasing doses of HA-S6K1-R3A; in Fig. 4k control (scramble) cells. Particulars: remark: other sources report otherwise. For orientation: Immunoblotting shows a protein as a band on a membrane.

Experiment [2] addresses T8, endogenous 14-3-3γ (DLD1 cells) (human (endogenous in DLD1)) (UniProt P61981).
T8 sequence: T4 sequence
Description: co-IP; DLD1 cell lysates, IP with control IgG, anti-PDK1 or 14-3-3γ antibodies, immunoblot; endogenous proteins; in Fig. 1g cells infected with shRNA against S6K1.

Residue numbers refer to the chain shown, from its start. Names may count otherwise. No constants are given. Whether binding was seen depends on the method and setting. In cells and extracts the contact can be indirect. Some entries that bind do so weakly or less than the wild type. For part of these data: Tags and fused reporters may be left off the sequences shown.

As for “HA-AKT2 (from UniProt P31751 1-481) (enzyme)”, the binding entry (in experiment [1]; in the experiment with Flag-PDK1-S549D; with Flag-PDK1-S549A) was “binds” in each case.
As for “HA-S6K1 (from UniProt P23443 1-525) (enzyme)”, the binding result (in experiment [1]; in the experiment with Flag-PDK1-S549D; with Flag-PDK1-S549A) was “binds” each time.
For the molecule “Myc-PLK1 (from UniProt P53350 1-603) (enzyme)”, the binding result (in experiment [1]; with Flag-PDK1-S549D; with Flag-PDK1-S549A) was “binds” throughout.
With “HA-SGK1 (from UniProt O00141 1-431) (enzyme)”, the binding result (in experiment [1]; with Flag-PDK1-S549D; in the experiment with Flag-PDK1-S549A) was “binds” each time.
Take “HA-AKT3 (from UniProt Q9Y243 1-479) (enzyme)”: the binding result (in experiment [1]; in the experiment with Flag-PDK1-S549D; with Flag-PDK1-S549A) was “binds” each time.

B1: Flag-PDK1 (3-phosphoinositide-dependent protein kinase 1, wild type) (enzyme, UniProt O15530 1-556)
chain: T1 sequence
On to B1, for which the binding entry in the experiment with GST-14-3-3γ was “binds”; in the experiment with GST-PDK1 it was “no binding (condition: in 14-3-3γ knockdown cells)”; with HA-14-3-3γ it was “binds”.

B2: Flag-PDK1 (3-phosphoinositide-dependent protein kinase 1, wild type), O15530 1-556 (enzyme)
chain: T1 sequence
In the case of B2, the binding result in the experiment with GST-PDK1, O15530 is recorded as “binds”.

B3: Flag-PDK1-S549D (enzyme, UniProt O15530 1-556)
chain: T1 sequence with S549D
For the molecule B3, in the experiment with HA-14-3-3γ, the binding entry was “binds”.

B4: endogenous PDK1 (DLD1 cells) (enzyme, UniProt O15530 1-556)
chain: T1 sequence
For the molecule B4, in experiment [2], the binding result is on record as “binds”.

The record behind these values is paper PMC8941131.
